Measurements from PubChem BioAssay AID504834 (National Center for Advancing Translational Sciences (NCATS), 2011).
Out of some 320,000 compounds screened, about 22,000 (6.9%) were called active. The inconclusive results got no clear call from the source; some entries with a clear call stand among them for comparison. The call rests on the fitted dose curve; in most records, active means well fitted inhibition curve with a large enough effect; inconclusive means small, poorly fitted or top-dose-only effect, or another doubt; inactive means no such curve, though single readings can be large or run the other way. Where the call is inconclusive, the potency comes from a doubtful curve fit.

experiment: Primary qHTS for delayed death inhibitors of the malarial parasite plastid, 96 hour incubation; details: P. falciparum luciferase reporter growth; series mostly up to 28.7 µM; activity change, negative = inhibition: at the top concentration
In short: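 Plates of compound plus infected erythrocytes (2% hematocrit, 0.05% parasitemia final) incubate 96 hours, 37 C, 5% CO2. Detection reagent added; reduced luminescence from the parasites' luciferase reporter flags inhibition.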
On the % scale 0 is the no-effect control and ±100 the full control effect; potency means the concentration at half of the fitted maximal effect.

| SMILES | Potency | activity change, negative = inhibition |
| --- | --- | --- |
| CCOC(=O)c1cccc(-c2c(-c3ccccc3)ncc3cc(OC)c(OC)cc23)c1 | inconclusive: 14.7 µM [inhibitor, single point] |  |
| Cc1nc2ccccn2c1-c1ccnc(SCc2ccc(Cl)cc2)n1 | active: 1.85 µM |  |
| Cc1cc(=O)n2c3ccccc3n(CC(O)CN3CCCCC3)c2c1C#N (stereo not drawn) | inconclusive: 18.5 µM [inhibitor, single point] |  |
| COc1ccc(CCNC(=O)CCS(=O)(=O)c2ccc3c(c2)NC(=O)CO3)cc1OC |  | inactive: -41% |
| CC(=O)Nc1c(O)nc(SCc2ccccc2C#N)[nH]c1=O |  | inactive: 37.4% |
| COc1ccc(-c2cc(C(F)(F)F)n3nc(C)cc3n2)cc1 | inconclusive: 1.17 µM [inhibitor, single point] |  |
| O=C(NCCS(=O)(=O)c1ccc(Br)cc1)c1c(F)cccc1F |  | inactive: 30.1% |
| Cc1cc(NC(=O)CSc2nnc3ccccn23)no1 | inconclusive: 4.15 µM [inhibitor, single point] |  |
| O=[N+]([O-])CC1(n2nc3ccccc3n2)CCCCC1 |  | inactive: 82.8% |
| COc1ccc(N(C(C)C(=O)NCCSCc2cccc(Cl)c2)S(C)(=O)=O)cc1 (stereo not drawn) | inconclusive: 18.5 µM [inhibitor, partial curve, poor fit] |  |
| COc1cc(/C=C/C(=O)OCC(=O)NCCN2C(=O)CSC2=O)ccc1OC(F)F | inconclusive: 18.5 µM [inhibitor, single point] |  |
| CC1Cc2nc(SCC(=O)NCC3CCCO3)n(-c3ccc(F)cc3)c(=O)c2S1 (stereo not drawn) | active: 3.7 µM |  |
| CC1(C)Cc2c(ccc3ccccc23)C(=O)N1 | inconclusive: 11.7 µM [inhibitor, single point] |  |
| COc1ccc(NC(=O)C(C/C=C(/C)Cl)C(C)=O)cc1 (stereo not drawn) |  | inactive: -28.7% |
| Nc1nc(N)c2c(ccc3nccc32)[nH]1 | active: 3.7 µM |  |
| Cc1ccc(NC(=O)N2CCCC2C(=O)NCc2ccc(Cl)cc2)cc1 (stereo not drawn) | inconclusive: 8.28 µM [inhibitor, partial curve, poor fit] |  |
| O=C(O)CSCC(=O)Nc1ccc(C(F)(F)F)cc1 |  | inactive: -5.68% |
| COc1cc(OC)c2c(-c3ccccc3)cc(=O)oc2c1C(CCN1CCCC(C)C1)c1ccc(N(C)C)cc1 (stereo not drawn) | inconclusive: 11.7 µM [inhibitor, single point] |  |
| O=c1c2c3c(sc2nc2n1CCC2)CCCC3 | inconclusive: 0.0029 µM [inhibitor, full curve, poor fit] |  |
| CCN(CC)CCCCN1c2ccccc2Sc2ccccc21 |  | inactive: -3.11% |
| CCCn1c(=O)c2sccc2n2c(CCCC(=O)NCc3cccnc3)nnc12 |  | inactive: 18.2% |
| Cc1ccc2c(C(=O)CN3CCC(C(N)=O)CC3)c(C)[nH]c2c1 |  | inactive: 9.67% |
| Cc1cc(/C=C2\NC(=O)NC2=O)c(C)n1-c1ccc(N2CCOCC2)cc1 | inconclusive: 20.8 µM [inhibitor, partial curve, poor fit] |  |
| COc1cccc(-c2sc3ccc(OC)cc3c2-c2cc(F)cc(OC)c2)c1 | active: 2.94 µM |  |

| SMILES | Potency | activity change, negative = inhibition |
| --- | --- | --- |
| Cn1c(=O)n(C)c2cc(NS(=O)(=O)c3ccc(Br)s3)ccc21 | active: 9.28 µM |  |
| O=C(O)/C=C/c1ccc(S(=O)(=O)Nc2ccccc2C(=O)Nc2ccc(F)cc2)cc1 |  | inactive: -5.43% |
| Cc1snc(SCc2ccc(Cl)cc2)c1C#N |  | inactive: 9.31% |
| CCCc1nc2c(C)ccc(C)c2c(N)c1CC | active: 9.28 µM |  |
| Cc1cc(C(=O)OCC(N)=O)c(C)n1-c1ccccc1 | active: 2.08 µM |  |
| Cc1cccn2c(=O)nc(SCC(=O)N3N=C(c4cccs4)CC3c3ccc(F)cc3)nc12 (stereo not drawn) | active: 3.7 µM |  |
| COc1ccc(C=O)cc1OC(=O)N1CCOCC1 | inconclusive: 8.28 µM [inhibitor, partial curve] |  |
| c1ccc(CCc2ccncc2)cc1 | inconclusive: 11.7 µM [inhibitor, single point] |  |
| CCC(C)NC(=O)C1CCN(S(=O)(=O)c2ccc3c(c2)CC(C)N3C(C)=O)CC1 (stereo not drawn) |  | inactive: 18% |
| COc1ccccc1NC(=O)CSc1nc(C)c2c(c1C#N)CCCC2 | inconclusive: 0.117 µM [inhibitor, full curve, poor fit] |  |
| Cn1cc(/C=C2/SC(=O)N(CC(=O)Nc3ccc4c(c3)OCO4)C2=O)c2ccccc21 | inconclusive: 1.17 µM [inhibitor, partial curve, poor fit] |  |
| C=CCn1c(=O)c(C(=O)Nc2ccccc2C)c(O)c2ccccc21 | inconclusive: 16.5 µM [inhibitor, partial curve, poor fit] |  |
| COc1ccc(CCC2(C)NC(=O)N(C(C)C(=O)N3c4ccccc4CC3C)C2=O)cc1 (stereo not drawn) | inconclusive: 11.7 µM [inhibitor, single point] |  |
| CC1CCN(S(=O)(=O)c2ccc3c(c2)N(CC(=O)NCCCOC(C)C)C(=O)CO3)CC1 |  | inactive: 5.93% |
| CCN(CC)CCNC(=O)c1ccc(NC(=O)c2ccc(Cl)c(S(=O)(=O)N3CCCCCC3)c2)cc1 |  | inactive: -57.6% |
| Cc1ccc(CNC(=O)/C=C/c2ccc(S(=O)(=O)NCc3ccco3)cc2)cc1 | inconclusive: 10.4 µM [inhibitor, single point] |  |
| COc1ccc(C(C(=O)NC2CCCC2)N(Cc2ccccc2)C(=O)c2nsc(Cl)c2Cl)cc1 (stereo not drawn) | inconclusive: 1.04 µM [inhibitor, partial curve, poor fit] |  |
| O=[N+]([O-])c1nn(-c2ccc(Cl)cc2)n(O)c1=NCc1cccnc1 |  | inactive: -12.5% |
| COc1ccc(CC2c3cc(OC)c(OC)cc3CCN2C)cc1OC (stereo not drawn) | inconclusive: 18.5 µM [inhibitor, single point] |  |
| CCCCOc1ccc(C(=O)NCC(=O)N2CCN(C(=O)c3ccco3)CC2)cc1 | inconclusive: 8.28 µM [inhibitor, partial curve] |  |
| CCCOC(=O)c1c(N)n(Cc2cccs2)c2nc3ccccc3nc12 | active: 7.38 µM |  |
| Cc1cccc(OCC(=O)O/N=C(\N)c2ccncc2)c1 | inconclusive: 14.7 µM [inhibitor, single point] |  |
| O=C(NCc1ccccc1)c1ccc(NC2=NC3CS(=O)(=O)CC3S2)cc1 (stereo not drawn) | inconclusive: 1.17 µM [inhibitor, full curve, poor fit] |  |
| CCCNC(=O)c1csc(Nc2cccc3ccccc23)n1 | active: 6.57 µM |  |

Molecules shown so far with a furan ring, fused or not:

| SMILES | Potency | activity change, negative = inhibition |
| --- | --- | --- |
| Cc1ccc(CNC(=O)/C=C/c2ccc(S(=O)(=O)NCc3ccco3)cc2)cc1 | inconclusive: 10.4 µM [inhibitor, single point] |  |
| CCCCOc1ccc(C(=O)NCC(=O)N2CCN(C(=O)c3ccco3)CC2)cc1 | inconclusive: 8.28 µM [inhibitor, partial curve] |  |
